In PubChem BioAssay AID504594 (Broad Institute, 2011):
Where “and” joins values, the source holds several entries; their conditions need not be identical. Equal values may be shown once. Screen size: about 2,000 compounds; fewer than 10 were called active.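 Rule for the calls: active = growth inhibition of at least 75% in every replicate, which also brings the mean inhibition to 75% or more; inconclusive = mean inhibition 75% or more but some replicate under 75%; inactive = the rest.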 This is one part of the list.

Test: reduced viability of yeast carrying PfHsp90 – S. cerevisiae, BacTiter-Glo luminescence, antimalarial PfHsp90 inhibitor project, primary screen (AID 504594);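 note: 0% = DMSO neutral control wells and 100% = 20 µM radicicol control wells; higher value means stronger growth inhibition because the sign is flipped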
Settings: S. cerevisiae expressing PfHsp90, BacTiter-Glo growth, 48 h; at 9.4 µM; stronger effect = higher value

Row | SMILES | growth inhibition
1 | CC(=O)c1c[nH]c2ccc(C)cc2c1=O | inactive: -4.93%
2 | O=C(NCC1CCCCN1)c1cc(OCC(F)(F)F)ccc1OCC(F)(F)F (stereo not given) | inactive: 14.4%
3 | CC1CCc2cc(F)cc3c(=O)c(C(=O)O)cn1c23 (stereo not given) | inactive: -23.9%
4 | COc1cc2ccc(=O)oc2c(O)c1OCC=C(C)C | inactive: 1.02%
5 | CCCCOc1ccc(OCCCN2CCOCC2)cc1 | inactive: 1.86%
6 | COc1ccccc1C(=O)N=C1NC(=O)CC2C(=O)NCCN12 (stereo not given) | inactive: 2.95%
7 | Cc1ccc(NC(=O)CSc2nc(O)c(Cc3ccccc3)c(=O)n2-c2ccccc2)cc1 | inactive: -3.66%
8 | COCCCN1C(=O)C(=O)/C(=C(/O)c2ccc3c(c2)CC(C)O3)C1c1cccnc1 (stereo not given) | inactive: 5.09%
9 | COc1ccc2cc(C(=O)Nc3ccc(S(N)(=O)=O)cc3)sc(=O)c2c1OC | inactive: 5.36%
10 | CSc1ccc(CN2CCN(CCC(C)C)C(CCO)C2)cc1 (stereo not given) | inactive: -12.6%
11 | Cc1nc(N)nc2c1CCCC2 | inactive: -5.02%
12 | CC[n+]1c(C)sc2cc(C)ccc21 | inactive: -1.59%
13 | CCc1cc(=O)oc2cc3occ(-c4ccc(OC)c(F)c4)c3cc12 | inactive: -4.19%
14 | Cc1ccc(SCC(=O)Nc2nccs2)cc1 | inactive: -0.344%
15 | COc1ccc(CCN(C)Cc2nc(Cc3ccc(OC)c(OC)c3)no2)cc1OC | inactive: 5.09%
16 | Nc1nc2c(nc(SCc3ccccc3Br)n2C2OC(CO)C(O)C2O)c(=O)[nH]1 (stereo not given) | inactive: -22.3%
17 | CC1(C)CC(=O)C(C(=O)CCCCC(=O)C2C(=O)CC(C)(C)CC2=O)C(=O)C1 | inactive: 3.6%
18 | CCOC(=O)C1C(=O)OC(C)(C)C1C(C)C(=O)c1ccc(C)cc1 (stereo not given) | inactive: 23.2%
19 | O=C(Cc1cccc2ccccc12)N1CC[C@@]2(O)CCCC[C@H]2C1 | inactive: -9.85%
20 | CCOC(=O)c1ccccc1NC(=O)c1ccc(F)cc1 | inactive: -12.5%
21 | OCC(O)CN1CCN(c2ccccc2)CC1 (stereo not given) | inactive: 0.412%
22 | CC(C)C[C@H](NC(=O)NC(C)C)C(=O)O | inactive: 1.91%
23 | CN(C)CCC(c1ccc(Cl)cc1)c1ccccn1 (stereo not given) | inactive: -5.62%
24 | COc1ccc(-c2coc3cc(O)cc(O)c3c2=O)cc1 | inactive: 5.54%
25 | COc1ccc(C(=O)c2oc3ccc(Br)cc3c2NC(C)=O)cc1 | inactive: -11.3%

Quoted from above: nos. 2–13
Row | SMILES | growth inhibition
2 | O=C(NCC1CCCCN1)c1cc(OCC(F)(F)F)ccc1OCC(F)(F)F (stereo not given) | inactive: 14.4%
3 | CC1CCc2cc(F)cc3c(=O)c(C(=O)O)cn1c23 (stereo not given) | inactive: -23.9%
4 | COc1cc2ccc(=O)oc2c(O)c1OCC=C(C)C | inactive: 1.02%
5 | CCCCOc1ccc(OCCCN2CCOCC2)cc1 | inactive: 1.86%
6 | COc1ccccc1C(=O)N=C1NC(=O)CC2C(=O)NCCN12 (stereo not given) | inactive: 2.95%
7 | Cc1ccc(NC(=O)CSc2nc(O)c(Cc3ccccc3)c(=O)n2-c2ccccc2)cc1 | inactive: -3.66%
8 | COCCCN1C(=O)C(=O)/C(=C(/O)c2ccc3c(c2)CC(C)O3)C1c1cccnc1 (stereo not given) | inactive: 5.09%
9 | COc1ccc2cc(C(=O)Nc3ccc(S(N)(=O)=O)cc3)sc(=O)c2c1OC | inactive: 5.36%
10 | CSc1ccc(CN2CCN(CCC(C)C)C(CCO)C2)cc1 (stereo not given) | inactive: -12.6%
11 | Cc1nc(N)nc2c1CCCC2 | inactive: -5.02%
12 | CC[n+]1c(C)sc2cc(C)ccc21 | inactive: -1.59%
13 | CCc1cc(=O)oc2cc3occ(-c4ccc(OC)c(F)c4)c3cc12 | inactive: -4.19%

(more compounds)

Row | SMILES | growth inhibition
26 | O=C(CC1(O)C(=O)Nc2ccccc21)c1ccccc1O (stereo not given) | inactive: 11.3%
27 | COc1ccccc1C1C(C#N)=C(N)Oc2c1oc(CO)cc2=O (stereo not given) | inactive: 13.1%
28 | Nc1ccc(C(=O)O)c(O)c1 | inactive: -0.345% and inactive: -10.6%
29 | O=C(O)c1ccccc1Nc1cccc(C(F)(F)F)c1 | inactive: -2.14%
30 | O=C(NCCc1nc2ccccc2[nH]1)c1cccc(Br)c1 | inactive: 2.71%
31 | Cc1ccc2c(c1)c(C)cc(=O)n2CCC(=O)O | inactive: -4.29%
32 | CC(C)(C)NCC(O)COc1ccccc1C(=O)CCc1ccccc1 (stereo not given) | inactive: -4.71%
33 | CN(C)CCOC(=O)C(c1ccccc1)C1(O)CCCC1 (stereo not given) | inactive: 6.01%
34 | C[C@]12CCC3C(CC=C4C[C@@H](O)CC[C@@]43C)C1CCC2[C@]1(C)CCC(=O)O1 (stereo not given in full) | inactive: 3.64%
35 | Nc1[nH]c(=O)ncc1F | inactive: 29.4%
36 | CC(C)(C)OC(=O)N1CC(O)CC1C(=O)OCC(=O)c1ccc(Cl)cc1 (stereo not given) | inactive: -9.87%
37 | COc1ccc(/C=C\C(=O)c2c(O)ccc3c(C)cc(=O)oc23)cc1OC | inactive: -6.45%
38 | CCOC(=O)c1oc2cc(OCC(N)=O)ccc2c(=O)c1-c1ccc(OC)c(OC)c1 | inactive: 5.11%
39 | S=C(NCCOCCOCCNC(=S)Nc1ccccc1)Nc1ccccc1 | inactive: -14.7%
40 | Cc1nc2ccccc2n1CC(O)Cn1c2ccccc2c2ccccc21 (stereo not given) | inactive: -4.83%
41 | CCC1(c2ccccc2)NC(=S)N(c2ccc(C)c(C)c2)N1 (stereo not given) | inactive: -7.44%
42 | O=C(O)CCCCCN=C1CCc2ccccc2N1 | inactive: 0.535%
43 | Cc1ccc2c(CN3CCN(Cc4ccc5c(c4)OCO5)CC3)cc(=O)oc2c1C | inactive: 0.516%
44 | COC(=O)C1=NN(C(=O)c2cccc(Br)c2)C(O)(c2ccc(Cl)cc2)C1 (stereo not given) | inactive: -22.7%
45 | CC(=O)OCC1OC(n2ccc(=O)[nH]c2=O)C(O)C1O (stereo not given) | inactive: 0.902%
46 | CC(NCCc1ccc(O)cc1)C(O)c1ccc(O)cc1 (stereo not given) | inactive: 2.32%
47 | COc1cccc(CC(=O)NCC2COc3ccccc3O2)c1OC (stereo not given) | inactive: 12.9%
48 | O=[N+]([O-])c1ccc(O)c2ncccc12 | active: 93.7%
49 | Cc1ccc(/C=N/NC(=O)C2(C)CC2(Br)Br)cc1 (stereo not given) | inactive: -0.881%
50 | COc1ccc(C2OC[C@H]3O[C@H](O)[C@H](NC(C)=O)[C@@H](O)[C@@H]3O2)cc1 (stereo not given in full) | inactive: -5.81%
